Out of some 410,000 compounds screened, about 18,000 (4.4%) were called active. This list was built around the results that the source calls inconclusive (neither active nor inactive); the mix of calls is not that of the screen. Rule as the data show it: active = activity change below about -60%; inconclusive = no clear call, values can overlap the other calls; inactive = above about -39%.
Experiment: qHTS Assay for inhibitors of the human cytomegalovirus (HCMV)
Conditions: HFF cells, HCMV-luciferase reporter, 72 h; at 57.5 µM; active compounds read low
Summary of the method: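 Two compound doses tested in HFFs infected with HCMV-luciferase, MOI 1 PFU/cell, 72 h at 37C. Lysate luminescence read with OneGlo; data normalized against buffer-only and 10uM Salinomycin inhibitor controls.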
For `Cc1cccc(-c2nc3cc(NC(=O)c4ccc(OCC(C)C)cc4)ccc3o2)c1`, the activity change, negative = inhibition was inconclusive: -44.6%. For `Cc1ccc(C(=O)N/C(=C/c2ccccc2F)C(=O)NCCCn2ccnc2)cc1`, the activity change, negative = inhibition was inconclusive: -51%. In the case of `Cc1ccc(-c2noc(CN3CCOCC3)n2)cc1`, the activity change, negative = inhibition was inactive: 83.8%. For `Cc1csc(=O)n1CC(=O)OCC(=O)Nc1cc(S(=O)(=O)N2CCOCC2)ccc1Cl`, the activity change, negative = inhibition was inactive: -28.4%. In the case of `Cc1ccc(NC(=O)c2ccc(S(=O)(=O)N3CCC(C)CC3)cc2)nc1`, the activity change, negative = inhibition was active: -64%. With `COc1ccc(CCNC(=O)c2cnn(-c3ccc(C)c(C)c3)c2NC(=O)c2ccco2)cc1OC` the activity change, negative = inhibition was inconclusive: -53.6%. With `O=C(Nc1cccc(Br)c1)Nc1nc2c(s1)CCCCCC2` the activity change, negative = inhibition was active: -86.3%. For `CC(=Nc1ccccc1)C1=C(O)C(Cc2ccccc2)NC1=O` (stereo not given), the activity change, negative = inhibition was active: -76.4%. For `O=C(CN1C(=O)c2cccnc2Oc2ccc(Cl)cc21)NCCCN1CCCCC1`, the activity change, negative = inhibition was inconclusive: 0%. For `OC1(c2ccc(Br)cc2)CCNCC1`, the activity change, negative = inhibition was inactive: 10.9%. For `S=c1[nH]nc(Cn2cnc3ccccc32)n1-c1ccccc1`, the activity change, negative = inhibition was inconclusive: -44%. With `O=c1c(Cl)c(NCCCO)cnn1-c1nc2ccccc2[nH]1` the activity change, negative = inhibition was active: -98.2%. For `CCN(CC)c1nc(N2CCN(CCO)CC2)nc2ccccc12`, the activity change, negative = inhibition was inactive: 10.6%. For `c1cc(Nc2ncnc3sc4c(c23)CCC4)ccn1`, the activity change, negative = inhibition was active: -63.3%. In the case of `O=C(NCCN1C(=O)S/C(=C/c2cccnc2)C1=O)c1cccs1`, the activity change, negative = inhibition was inactive: -14.7%. With `CCOc1ccc(-c2cn(-c3ccc(OC)cc3)c(SC)n2)cc1` the activity change, negative = inhibition was inactive: -27.3%. In the case of `COc1ccc(Cl)cc1NC(=O)CN(C)C(=O)c1cc2c(s1)CCC(C)C2` (stereo not given), the activity change, negative = inhibition was inconclusive: -50.5%. For `Cc1ccc(NS(=O)(=O)c2ccc(-n3cccn3)cc2)cc1C`, the activity change, negative = inhibition was active: -92.9%. In the case of `CC(=O)Nc1ccc(OCC(O)CN2C(C)CCCC2C)cc1` (stereo not given), the activity change, negative = inhibition was inactive: -25.7%. For `Cn1c(=O)c2c(nc(CN3CCCCC3)n2CCc2ccccc2)n(C)c1=O`, the activity change, negative = inhibition was inconclusive: -58.2%. With `C[C@@H]1CN([C@H](C)CO)C(=O)c2cc(NC(=O)C3CCCCC3)ccc2O[C@@H]1CN(C)Cc1ccncc1` the activity change, negative = inhibition was inconclusive: -57%. In the case of `CN1CN(C)C(c2ccncc2)=C1c1ccncc1`, the activity change, negative = inhibition was inconclusive: -41.1%. With `COc1ccc(-n2c(=O)c3c4c(sc3n(CC(=O)Nc3cc(C)[nH]n3)c2=O)CCC4)c(OC)c1` the activity change, negative = inhibition was inconclusive: -56.8%. With `CC(C)(C)C(C(=O)n1cccc1C#N)c1ccccc1` (stereo not given) the activity change, negative = inhibition was inactive: -14.4%. With `Cc1cccc(N2CCN(C(=O)COc3ccc4ccc(=O)oc4c3)CC2)c1C` the activity change, negative = inhibition was inconclusive: -46.9%.
% is scaled to controls: 0 for no effect and ±100 for the full control effect.
